Results on two molecules are retold here after paper doi:10.1101/2022.08.24.505191.

Test [1] addresses T1, FLAG-tagged human RNase L (human) (UniProt Q05823).
T1 sequence: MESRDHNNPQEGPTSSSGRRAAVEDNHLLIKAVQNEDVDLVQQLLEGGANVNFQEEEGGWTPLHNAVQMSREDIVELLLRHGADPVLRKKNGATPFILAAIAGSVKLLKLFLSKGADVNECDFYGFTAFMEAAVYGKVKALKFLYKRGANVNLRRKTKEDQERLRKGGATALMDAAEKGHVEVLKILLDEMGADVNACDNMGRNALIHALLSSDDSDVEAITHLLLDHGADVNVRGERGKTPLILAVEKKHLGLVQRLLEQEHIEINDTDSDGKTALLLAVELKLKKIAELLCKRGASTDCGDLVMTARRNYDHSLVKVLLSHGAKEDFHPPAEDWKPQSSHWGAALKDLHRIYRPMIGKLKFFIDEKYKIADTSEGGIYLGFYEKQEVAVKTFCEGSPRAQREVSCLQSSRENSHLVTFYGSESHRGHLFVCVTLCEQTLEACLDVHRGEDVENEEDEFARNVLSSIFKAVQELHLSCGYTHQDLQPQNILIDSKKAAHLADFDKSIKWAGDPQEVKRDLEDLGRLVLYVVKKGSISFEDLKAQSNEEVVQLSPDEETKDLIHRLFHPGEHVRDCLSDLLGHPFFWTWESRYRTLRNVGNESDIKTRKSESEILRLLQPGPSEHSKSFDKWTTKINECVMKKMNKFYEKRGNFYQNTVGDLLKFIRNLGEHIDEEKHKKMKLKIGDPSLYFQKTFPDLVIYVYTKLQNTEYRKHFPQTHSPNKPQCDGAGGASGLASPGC
Nature of the test: co-IP.

For test [2], the target named is Halo-tagged SA11 NSP1 (rotavirus A, simian strain SA11). Nature of the test: pull-down.

Results are given in words; binding and its absence hold for the method and conditions named. Binding seen in cells or lysates may run through a third protein. A result given as binding can be weak or reduced; the word gives no strength. Tags and fused reporters may be left off the sequences shown.

As for “Halo-tagged SA11 NSP1 (rotavirus A, simian strain SA11)”, the binding entry in test [1] is “binds”.

B1: FLAG-tagged human RNase L (enzyme, UniProt Q05823 1-741)
chain: MESRDHNNPQEGPTSSSGRRAAVEDNHLLIKAVQNEDVDLVQQLLEGGANVNFQEEEGGWTPLHNAVQMSREDIVELLLRHGADPVLRKKNGATPFILAAIAGSVKLLKLFLSKGADVNECDFYGFTAFMEAAVYGKVKALKFLYKRGANVNLRRKTKEDQERLRKGGATALMDAAEKGHVEVLKILLDEMGADVNACDNMGRNALIHALLSSDDSDVEAITHLLLDHGADVNVRGERGKTPLILAVEKKHLGLVQRLLEQEHIEINDTDSDGKTALLLAVELKLKKIAELLCKRGASTDCGDLVMTARRNYDHSLVKVLLSHGAKEDFHPPAEDWKPQSSHWGAALKDLHRIYRPMIGKLKFFIDEKYKIADTSEGGIYLGFYEKQEVAVKTFCEGSPRAQREVSCLQSSRENSHLVTFYGSESHRGHLFVCVTLCEQTLEACLDVHRGEDVENEEDEFARNVLSSIFKAVQELHLSCGYTHQDLQPQNILIDSKKAAHLADFDKSIKWAGDPQEVKRDLEDLGRLVLYVVKKGSISFEDLKAQSNEEVVQLSPDEETKDLIHRLFHPGEHVRDCLSDLLGHPFFWTWESRYRTLRNVGNESDIKTRKSESEILRLLQPGPSEHSKSFDKWTTKINECVMKKMNKFYEKRGNFYQNTVGDLLKFIRNLGEHIDEEKHKKMKLKIGDPSLYFQKTFPDLVIYVYTKLQNTEYRKHFPQTHSPNKPQCDGAGGASGLASPGC
With B1, in test [2], the binding result is “binds”.
